Publication PMC10163288
The list shows a part of the results.

B1: il2ra_site2_2erj_normal_mot_HHH_b1_03107_000000098_0001_39_52_H_._HHH_b2_03853_0001_0000200008_0000001_0 (protein)
chain: SSSSTWREVWEEVAELLALAAHIDDEEEAERVLEEARRVAEENNDEILRRYVEFVLRDFKSSSSS
B2: il2ra_site1_2b5i_sap_17_mot_HHH_b2_06068_000000278_0001_1_18_H_._HEEHE_2120_af2_0001_0000300022_0000001_0_0001_af2pred_dldesign_0_af2pred (protein)
chain: SSSSAEQIREARELFLKANELFQAGKPEEAKEALERALELARAGGAPLLARMIELALKQIESSSS
B3: il2ra_site2_3nfp_normal_mot_HHH_b1_05547_af2_000000149_0001_21_38_H_._HHH_b1_01193_0001_0000400013_0000001_1 (protein)
chain: SSSSDEEERKLEEALELVLEAARALGDEEVVRLIEKLLEEFREEGDPRATLEAYRLSREAYSSSS
B4: il2ra_site1_2b5i_normal_mot_2cbe48e66a1f39b3fed734b245ab0a04_0001_000000015_0001_17_31_H_._HHH_b2_00019_0001_0000500012_0000001_0_af2pred_dldesign_0_af2pred (protein)
chain: SSSSSSDAEAEVERLLEEARKVNPEEAEKLLFKALVVAWAAKDPALVARVEAEAKRLLSSSSSSS
B5: il2ra_site1_2b5i_sap_10_mot_HHH_b2_05260_af2_000000278_0001_1_17_H_._HHH_b2_03791_af2_0001_0000100001_0000001_0_0001_af2pred_0001_af2pred (protein)
chain: SSSSDEEFERVTELYRRASKLFLRGNKEEARQLLEEAIEIAEEAGDERIVEELRRFLELISSSSS
B6: il2ra_site1_2b5i_sap_7_mot_a062c9180b9d9b99c2c1a6214047e1ca_0001_000000007_0001_1_12_H_._HHH_b1_01731_0001_0000200020_0000001_1_0001_af2pred_dldesign_0_af2pred (protein)
chain: SSSSSSRREAILKIEELLKEADKLEDLEERQKVLDEAEKLAKELGDPFLLKAVADRRAELSSSSS
B7: il2ra_site2_2erj_normal_mot_HHH_b1_08185_000000063_0001_41_55_H_._HHH_b1_08449_af2_0001_0000200032_0000001_0 (protein)
chain: SSSSSEAELILELLERQIREAIERNDPSEVELLLRYLKLSAHDANDEEAEEVLEELEELISSSSS
B8: il2ra_site1_3nfp_normal_mot_cc4219192d8ccd35c40e7b68f9a57604_0001_af2_000000124_0001_16_32_H_._HHH_b2_07250_0001_0000900010_0000001_0_af2pred_0001_af2pred (protein)
chain: SSSSDALEWVEELAEKAFENNDKQLLEALYKLLREALEKYGDPEAEEVLEKVEELLRELQSSSSS
B9: il2ra_site1_3nfp_normal_mot_HHH_b2_05589_af2_000000178_0001_1_18_H_._HHH_b2_00580_af2_0001_0000300010_0000001_0_af2pred_0001_af2pred_1 (protein)
chain: SSSSSEEFKEVNRLLKEVVELRRNGNKEEAERLLEELLEELEKLNNEREARFVRKLLELKSSSSS
B10: il2ra_site1_3nfp_normal_mot_HHH_b2_01680_af2_000000278_0001_1_15_H_._HHH_b2_05745_0001_0000200008_0000001_0 (protein)
chain: SSSSDLHEFVEKVFRELFRLAREGDPEEARELVEEAIQLARELNDESALRKLELALKIIEGSSSS
B11: il2ra_site2_3nfp_sap_20_mot_b0be08dbeb19038e97ce33ab5425b229_0001_000000099_0001_16_33_H_._94ba4ec743f669b1dff215a975ef15fa_0001_1_0001_0000100002_0000001_0_000 … (protein)
chain: SEVEAAVRRIRENPERAEFLLWYVILRLAEELNVPPEEAARILEELLEELGNPELVEVVERLEKK
B12: il2ra_site2_2erj_sap_24_mot_HHH_b1_06627_000000072_0001_40_54_H_._HHH_b1_00814_0001_0000100002_0000001_0_0001 (protein)
chain: SSSSSDAHELAARAVEETIRAEREGDPEEAREILEEALEEARELNNELVVRFLELALEDLSSSSS
B13: il2ra_site2_3nfp_normal_mot_HHH_b1_05437_000000005_0001_40_57_H_._240341e08b947b301b1390bbd516957c_0001_af2_0001_0000300009_0000001_0 (protein)
chain: DEEFFEEILRLLENGDPEEARRVLARLAELAYEKNDFELFALVQELLFLILHDPEKAEELARKIR
B14: il2ra_site2_2erj_sap_26_mot_64bd02d26d05ce9f1a62b616cea0b888_0001_af2_000000029_0001_36_49_H_._HHH_b1_06641_0001_0000100005_0000001_0_0001 (protein)
chain: SSSSNEEASRLAREAFEELHRLFKEGDEEEFEELVEEVRERLERLGDPEAAKTIKRVAEFASSSS
B15: il2ra_site2_2erj_normal_mot_HHH_b2_04744_000000294_0001_42_58_H_._HHH_b1_07967_af2_0001_0000500022_0000001_0 (protein)
chain: SSSSDEEERLEELLKELEELSRKRDFHRFAEVFSEILELVEENNDEEAALIAFRIMREHFGSSSS
B16: il2ra_site2_3nfp_normal_mot_HHH_b1_05627_af2_000000038_0001_43_56_H_._HHH_b2_03760_0001_0000100003_0000001_0 (protein)
chain: SSSSSKAERYLEVAVLLLEEALKEGDEEVARRLLEVVESLAEALNDEEIQERLEEIREELSSSSS
B17: il2ra_site1_2b5i_normal_mot_HHH_b2_04910_000000118_0001_1_19_H_._HHH_b2_05178_af2_0001_0000100001_0000001_0_af2pred_dldesign_0_af2pred (protein)
chain: SSSSSDAKKALELFLEAEELYKEGKYDEAIKKLEEALELAKKAKNNSLVKMIELALKQLKSSSSS
B18: il2ra_site1_3nfp_sap_20_mot_HHH_b1_01159_af2_000000107_0001_1_20_H_._HHH_b1_08125_0001_0000600030_0000001_0_0001 (protein)
chain: SSSSDVRQEVNRLLREIMRLINEGDPEEAEELVEEAERLIREANDEWARRLLEQLKEKIDSSSSS
B19: il2ra_site2_3nfp_normal_mot_HHH_b1_06399_000000296_0001_43_57_H_._28a7dda1a33635c05f5ab621834c8d3e_0001_0001_0000200026_0000001_0 (protein)
chain: DEEIREALRHALEAGFPPEQVVFAVLALLLEKGIPPEEVHEIIEKAIEELGDPELQRVVEEFKQR
B20: il2ra_site2_2erj_sap_31_mot_HHH_b1_00839_000000020_0001_43_57_H_._HHH_b1_08027_0001_0000600039_0000001_0_0001 (protein)
chain: SSSSDETAERVAELIRRAVEAAENGNPEEAEELLREALEVAEEGNNPELARAVELMLKFLSSSSS
B21: il2ra_site1_2b5i_sap_27_mot_2012b86ae8029c2c8ab6d311e818aa61_0001_af2_000000125_0001_35_49_H_._8e6b26e28a7d461b936e264dc559eb07_0001_0001_0000300024_0000001_0_0 … (protein)
chain: SSSSSSDVEERVEELIELAKKLEDPVERKRVLTLARKIAKKHNRPELEKRVEEVRKELESSSSSS
B22: il2ra_site2_3nfp_sap_20_mot_HHH_b1_06577_af2_000000152_0001_20_36_H_._715270f0c9e4bd6ea7f8f80f44138a82_0001_1_0001_0000600047_0000001_0_0001 (protein)
chain: SSSSDKAEEYLEIALELLRRALEHGDEESFKSILETAKAMAESNRDEEAKEELKELEELLSSSSS
B23: il2ra_site2_2erj_normal_mot_HHH_b2_07287_af2_000000108_0001_40_57_H_._HHH_b1_07249_0001_0000300019_0000001_0 (protein)
chain: SSSSDEFHEANRLWREIHEAVQEGDEELVRRLLEELQEFAEEYNNKAAEAVIRIVEQVLNSSSSS
B24: il2ra_site2_3nfp_normal_mot_HHH_b2_04451_000000238_0001_21_37_H_._HHH_b1_04560_af2_0001_0000400020_0000001_0 (protein)
chain: SSSSDEEEEEIQELIKEAEELLKEGDPYEALRVLAEATQLAARLGNDELARIILELFEKVQSSSS
B25: il2ra_site2_3nfp_normal_mot_HHH_b2_06150_000000217_0001_39_53_H_._HHH_b2_05833_0001_0000200009_0000001_0_af2pred_0001_1_af2pred_swapped (protein)
chain: SSSDAEERVRELIEEAKELAERGNPEEAREVLAEAAKLAFELGDAELFMEIAELLLRVDELSSSS
B26: il2ra_site1_2b5i_sap_9_mot_HHH_b1_03046_af2_000000154_0001_39_55_H_._HHH_b2_00259_0001_0000500030_0000001_0_0001 (protein)
chain: SSSSSSVREARELFHEADELDRKGDPEEAERVLREAEEIAREAGSRVYLRSIESALKQAESSSSS
B27: il2ra_site2_3nfp_normal_mot_HHH_b1_05627_af2_000000038_0001_43_56_H_._HHH_b1_08236_0001_0000900039_0000001_0 (protein)
chain: SSSSDKRERYLEAALLAIERAIREGDDEIARKHLQAVKALAEDLNDEEILELVEELEELLRSSSS
B28: il2ra_site1_2b5i_normal_mot_3116615af0ee64d731c1c85d8523bf51_0001_000000216_0001_15_32_H_._HHH_b1_07838_af2_0001_0000100001_0000001_0_af2pred_dldesign_0_af2pred (protein)
chain: SSSSSALEKEVEETLAKADELKAAGKRREALEALEKIHKKLSAADAEDLQEKVEKKAKELSSSSS
B29: il2ra_site2_2erj_normal_mot_HHH_b2_01275_af2_000000073_0001_23_39_H_._HHH_b1_03567_af2_0001_0000300025_0000001_0 (protein)
chain: SSSSNREELKRLYELAVRLLHLLFRGDEEKVEEVLEELKELAEKLQSDTAREVVERVQEKLSSSS
B30: il2ra_site1_3nfp_normal_mot_HHH_b2_00128_000000255_0001_39_54_H_._acfcd8feda8a25c16a341ca1bc1bbb0a_0001_1_af2_0001_0000100002_0000001_0 (protein)
chain: NEAAELLHELVREYRDDPEVREILEEIMHLIARGNPEEAVKLLEELAKRLNDPEIEEIAKLVEEA
B31: il2ra_site2_2erj_normal_mot_HHH_b2_05198_af2_000000162_0001_40_52_H_._HHH_b1_05937_0001_0000100004_0000001_0 (protein)
chain: SSSSSDEEEEEIEELLERMKRIKDEEEFEKLVSEASVLIFRANNFELFDELARIFREFASSSSSS
B32: il2ra_site1_3nfp_normal_mot_HHH_b1_07861_af2_000000213_0001_22_38_H_._270c228088714b382bf5ac4c94627418_0001_0001_0000200006_0000001_0_af2pred_0001_af2pred (protein)
chain: SARELARLAKELGNEELLRLIFEALAIAIRKRDPELEKRLLELAEEALKKNDPELAEEIERLAEK
B33: il2ra_site2_3nfp_normal_mot_HHH_b1_00660_af2_000000090_0001_40_57_H_._HHH_b2_05982_0001_0000600017_0000001_0 (protein)
chain: SSSSSEREEKVEELLERAREYYENGNPEAVERLLAEALHIAYEYNDFELFALIQEFRSKLTSSSS
B34: il2ra_site2_3nfp_normal_mot_HHH_b2_00746_000000285_0001_20_36_H_._HHH_b1_07135_0001_0000400031_0000001_0 (protein)
chain: SSSSDVEERVRELLEKAREALEEGDPHEAFAILNDAAFLALRNGDEELLREVQEVAREIAESSSS
B35: il2ra_site1_3nfp_sap_9_mot_HHH_b1_00258_000000025_0001_42_56_H_._HHH_b1_03356_af2_0001_0000300034_0000001_0_0001 (protein)
chain: SSSSTAAEWLEELVEKLYEEGDADQVRAILRLLERAAEQLNNPLAREVAEEVEKLLRKLEGSSSS
B36: il2ra_site2_3nfp_sap_35_mot_HHH_b1_04787_000000220_0001_23_40_H_._HHH_b1_05252_af2_0001_0000700035_0000001_0_0001 (protein)
chain: SSSSDKAEKYLEIAIRLARRALEEGDPEVAKRILELARLMAESNGNEELLEEIRELLEELSSSSS
B37: il2ra_site1_2b5i_normal_mot_HHH_b2_04910_000000118_0001_1_19_H_._HHH_b2_03045_0001_0001100040_0000001_0_af2pred_0001_af2pred_1 (protein)
chain: SSSSSSEELRELLEEANELFQNGNPEEARQVLEEARELAEELNSRALRRMVESALRELGSSSSSS

Each binder was assayed against il2ra, P01589 (assay: yeast display titration).

Apparent Kd, inactive:
B1 no binding seen, B2 > 843 nM, B3 no binding seen, B4 no binding seen, B5 > 6.82 nM, B6 > 1050 nM, B7 no binding seen, B8 no binding seen, B9 no binding seen, B10 no binding seen, B11 no binding seen, B12 > 555 nM, B13 no binding seen, B14 no binding seen, B15 no binding seen, B16 no binding seen, B17 no binding seen, B18 no binding seen, B19 no binding seen, B20 no binding seen, B21 no binding seen, B22 no binding seen, B23 no binding seen, B24 no binding seen, B25 no binding seen, B26 no binding seen, B27 no binding seen, B28 no binding seen, B29 no binding seen, B30 no binding seen, B31 no binding seen, B32 no binding seen, B33 no binding seen, B34 no binding seen, B35 no binding seen, B36 no binding seen, B37 no binding seen
